How the values were obtained:
[1] = system: Escherichia coli; experiment: Antibacterial activity against Escherichia coli 25922 assessed as bacterial growth inhibition incubated for 18 hrs by CLSI based broth microdilution method; assay type: functional
Procedure, shortened: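 CLSI broth microdilution. Log-phase bacteria in Mueller Hinton broth added to 2-fold serial dilutions spanning 128 to 0.25 or 2 to 0.004 µg/mL. Incubated aerobically for 18 h at 37 °C, then OD600 read. MIC is the lowest concentration giving ≥90% growth inhibition; three independent assays.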

[2] = system: Pseudomonas aeruginosa; experiment: Antibacterial activity against Pseudomonas aeruginosa 15690 assessed as bacterial growth inhibition incubated for 18 hrs by CLSI based broth microdilution method; assay type: functional
Procedure, shortened: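 Broth microdilution to CLSI guidelines. Log-phase bacteria grown in Mueller Hinton broth, diluted, then exposed to 2-fold serial dilutions of compound (128 to 0.25 µg/mL or 2 to 0.004 µg/mL). Incubated aerobically 18 h at 37 °C. Growth read as OD600. MIC = lowest concentration giving ≥90% growth inhibition. Three independent assays.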

Work on `CN[C@H](CC(C)C)C(=O)N[C@H]1C(=O)N[C@@H](CC(N)=O)C(=O)N[C@H]2C(=O)N[C@H]3C(=O)N[C@H](C(=O)N[C@H](C(=O)O)c4cc(O)cc(O)c4-c4cc3ccc4O)[C@H](O)c3ccc(c(Cl)c3)Oc3cc2cc(c3O[C@@H]2O[C@H](CO)[C@@H](O)[C@H](O)[C@H]2O[C@H]2C[C@](C)(N)[C@H](O)[C@H](C)O2)Oc2ccc(cc2Cl)[C@H]1O` [VANCOMYCIN] yielded an MIC [1] of over 128 µg/mL and an MIC [2] of over 128 µg/mL.
